Data as given in PubChem BioAssay AID652272 (Drosophila RNAi Screening Center, 2013).
In all, the deposit lists about 21,000 reagents; shown is an unselected part of those with a known target gene and a result. Of all reagents, 503 (2.4%) got an active call. 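Raw plate light values, not normalised; calls rest on replicate z-scores that were not deposited; hits include reporter decreases as well as increases.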 Not stated in the record: the amount of reagent, the time to read-out.

Aim: 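Genes whose knock-down decreases or increases Hedgehog reporter output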 (primary screen)
Cell system: Drosophila clone 8 (Cl8) cells
Reagent: long dsRNA against Drosophila genes
Measurement: 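Firefly light from a Hedgehog-responsive ptc promoter reporter and Renilla reference light, both read on a plate reader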
Scale: firefly Hh reporter signal: higher = more ptc reporter light; Renilla reference signal: higher = more Renilla control light
Rule for the call: 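Called a hit if the two-replicate mean z-score lies below -2 or above +3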
Calls: active = hit: reporter lowered or raised; inactive = not a hit

With knock-down of CG13690, the screen gave firefly Hh reporter signal, replicate 1 = 1.18e5; firefly Hh reporter signal, replicate 2 = 73012; Renilla reference signal, replicate 1 = 2795; Renilla reference signal, replicate 2 = 1673; inactive. After knock-down of CG15332, the record shows firefly Hh reporter signal, replicate 1 = 64917; firefly Hh reporter signal, replicate 2 = 1.70e5; Renilla reference signal, replicate 1 = 2240; Renilla reference signal, replicate 2 = 6421; inactive. With knock-down of CG9981, the screen gave firefly Hh reporter signal, replicate 1 = 66820; firefly Hh reporter signal, replicate 2 = 1.85e5; Renilla reference signal, replicate 1 = 1664; Renilla reference signal, replicate 2 = 7034; inactive. After knock-down of GNBP3, the screen gave firefly Hh reporter signal, replicate 1 = 48147; firefly Hh reporter signal, replicate 2 = 50786; Renilla reference signal, replicate 1 = 4193; Renilla reference signal, replicate 2 = 3649; inactive. With knock-down of Npc2c, the screen gave firefly Hh reporter signal, replicate 1 = 74071; firefly Hh reporter signal, replicate 2 = 1.17e5; Renilla reference signal, replicate 1 = 2916; Renilla reference signal, replicate 2 = 3480; inactive. CG3777 scored firefly Hh reporter signal, replicate 1 = 6.03e5; firefly Hh reporter signal, replicate 2 = 82500; Renilla reference signal, replicate 1 = 3997; Renilla reference signal, replicate 2 = 3997; inactive.

After knock-down of schuy, the screen gave firefly Hh reporter signal, replicate 1 = 85260; firefly Hh reporter signal, replicate 2 = 1.06e5; Renilla reference signal, replicate 1 = 3027; Renilla reference signal, replicate 2 = 2923; inactive. After knock-down of AIMP1, the record shows firefly Hh reporter signal, replicate 1 = 1.06e5; firefly Hh reporter signal, replicate 2 = 83082; Renilla reference signal, replicate 1 = 2472; Renilla reference signal, replicate 2 = 6266; inactive. Depletion of Ncoa6 came out at: firefly Hh reporter signal, replicate 1 = 24386; firefly Hh reporter signal, replicate 2 = 14870; Renilla reference signal, replicate 1 = 1780; Renilla reference signal, replicate 2 = 906; active. CG5521 scored firefly Hh reporter signal, replicate 1 = 81435; firefly Hh reporter signal, replicate 2 = 76912; Renilla reference signal, replicate 1 = 2634; Renilla reference signal, replicate 2 = 1985; inactive. Depletion of CG33919 came out at: firefly Hh reporter signal, replicate 1 = 1.77e5; firefly Hh reporter signal, replicate 2 = 2.95e5; Renilla reference signal, replicate 1 = 4816; Renilla reference signal, replicate 2 = 12504; inactive. After knock-down of bowl, the screen gave firefly Hh reporter signal, replicate 1 = 1.02e5; firefly Hh reporter signal, replicate 2 = 66212; Renilla reference signal, replicate 1 = 3472; Renilla reference signal, replicate 2 = 2886; inactive.

Silencing of Der-2 gave: firefly Hh reporter signal, replicate 1 = 70208; firefly Hh reporter signal, replicate 2 = 82483; Renilla reference signal, replicate 1 = 2794; Renilla reference signal, replicate 2 = 919; inactive. CG9101 showed firefly Hh reporter signal, replicate 1 = 86915; firefly Hh reporter signal, replicate 2 = 1.83e5; Renilla reference signal, replicate 1 = 3290; Renilla reference signal, replicate 2 = 8615; inactive.

Entries above called active:
Ncoa6 | firefly Hh reporter signal, replicate 1 = 24386; firefly Hh reporter signal, replicate 2 = 14870; Renilla reference signal, replicate 1 = 1780; Renilla reference signal, replicate 2 = 906; Outcome = active
